Binding data for three substances are collected here from article PMC7550284, “The functional cooperation of 5-HT1A and mGlu4R in HEK-293 cell line” (Pharmacological Reports, 2020).

By UniProt entry, the sequences of proteins in these tests, tags left out. Where a name states a change or a piece, a line headed by the entry shows the natural chain unless it says otherwise. Residues count along the entry.
UniProt Q68EF4, residues 33-912: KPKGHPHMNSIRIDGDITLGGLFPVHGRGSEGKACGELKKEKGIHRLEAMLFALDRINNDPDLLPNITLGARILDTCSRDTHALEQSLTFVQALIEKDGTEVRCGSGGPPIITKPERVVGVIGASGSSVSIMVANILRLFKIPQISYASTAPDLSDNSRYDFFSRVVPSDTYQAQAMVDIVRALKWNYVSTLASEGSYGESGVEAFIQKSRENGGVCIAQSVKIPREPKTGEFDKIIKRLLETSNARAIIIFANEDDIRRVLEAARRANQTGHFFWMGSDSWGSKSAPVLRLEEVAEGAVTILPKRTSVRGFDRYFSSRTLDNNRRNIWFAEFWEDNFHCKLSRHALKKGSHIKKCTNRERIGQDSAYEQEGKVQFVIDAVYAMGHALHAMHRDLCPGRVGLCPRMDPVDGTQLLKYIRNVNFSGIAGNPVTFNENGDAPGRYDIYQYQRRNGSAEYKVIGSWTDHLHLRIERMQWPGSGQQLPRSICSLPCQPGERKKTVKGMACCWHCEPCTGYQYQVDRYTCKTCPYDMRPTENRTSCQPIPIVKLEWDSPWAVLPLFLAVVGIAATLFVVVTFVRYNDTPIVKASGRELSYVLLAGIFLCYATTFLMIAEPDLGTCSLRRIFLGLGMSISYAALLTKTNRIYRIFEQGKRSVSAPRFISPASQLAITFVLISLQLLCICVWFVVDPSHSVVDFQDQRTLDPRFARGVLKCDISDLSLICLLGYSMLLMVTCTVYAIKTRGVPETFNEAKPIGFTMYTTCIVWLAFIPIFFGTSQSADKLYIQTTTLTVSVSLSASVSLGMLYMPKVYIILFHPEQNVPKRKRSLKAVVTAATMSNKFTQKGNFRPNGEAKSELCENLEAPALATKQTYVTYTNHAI
UniProt Q14833, residues 33-912: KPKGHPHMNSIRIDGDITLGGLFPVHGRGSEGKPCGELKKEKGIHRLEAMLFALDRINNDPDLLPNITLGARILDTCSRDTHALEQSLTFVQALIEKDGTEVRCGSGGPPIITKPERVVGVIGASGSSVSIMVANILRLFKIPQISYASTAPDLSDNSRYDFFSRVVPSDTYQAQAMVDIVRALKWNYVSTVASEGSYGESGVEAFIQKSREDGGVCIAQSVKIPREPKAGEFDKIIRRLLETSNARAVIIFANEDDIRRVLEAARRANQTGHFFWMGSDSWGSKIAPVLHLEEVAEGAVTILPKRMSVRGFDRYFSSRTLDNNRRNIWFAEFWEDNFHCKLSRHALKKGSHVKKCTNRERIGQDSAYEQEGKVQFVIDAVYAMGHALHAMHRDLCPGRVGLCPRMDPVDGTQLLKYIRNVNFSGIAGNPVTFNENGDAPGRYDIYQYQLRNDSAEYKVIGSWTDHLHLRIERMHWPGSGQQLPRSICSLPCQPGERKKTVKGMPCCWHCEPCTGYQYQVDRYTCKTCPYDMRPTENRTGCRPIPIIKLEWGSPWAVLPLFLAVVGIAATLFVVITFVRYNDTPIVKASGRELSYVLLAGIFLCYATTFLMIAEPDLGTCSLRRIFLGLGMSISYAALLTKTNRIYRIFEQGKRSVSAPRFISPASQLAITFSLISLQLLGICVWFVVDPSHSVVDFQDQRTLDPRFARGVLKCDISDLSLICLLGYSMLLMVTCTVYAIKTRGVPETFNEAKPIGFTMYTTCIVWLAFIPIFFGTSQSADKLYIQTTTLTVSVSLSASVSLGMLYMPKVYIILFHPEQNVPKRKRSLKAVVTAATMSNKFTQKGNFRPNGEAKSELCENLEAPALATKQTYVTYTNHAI
UniProt P08908: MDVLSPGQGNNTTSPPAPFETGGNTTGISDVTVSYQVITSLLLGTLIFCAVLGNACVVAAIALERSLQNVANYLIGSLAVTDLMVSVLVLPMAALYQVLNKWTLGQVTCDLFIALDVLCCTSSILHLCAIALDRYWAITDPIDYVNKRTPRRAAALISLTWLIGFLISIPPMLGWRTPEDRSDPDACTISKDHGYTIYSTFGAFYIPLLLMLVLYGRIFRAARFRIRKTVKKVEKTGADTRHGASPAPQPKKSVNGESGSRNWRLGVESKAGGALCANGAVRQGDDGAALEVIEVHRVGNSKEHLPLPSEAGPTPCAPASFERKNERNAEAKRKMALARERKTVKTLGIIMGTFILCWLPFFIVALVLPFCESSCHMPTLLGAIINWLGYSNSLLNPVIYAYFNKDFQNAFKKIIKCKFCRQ
UniProt Q64264: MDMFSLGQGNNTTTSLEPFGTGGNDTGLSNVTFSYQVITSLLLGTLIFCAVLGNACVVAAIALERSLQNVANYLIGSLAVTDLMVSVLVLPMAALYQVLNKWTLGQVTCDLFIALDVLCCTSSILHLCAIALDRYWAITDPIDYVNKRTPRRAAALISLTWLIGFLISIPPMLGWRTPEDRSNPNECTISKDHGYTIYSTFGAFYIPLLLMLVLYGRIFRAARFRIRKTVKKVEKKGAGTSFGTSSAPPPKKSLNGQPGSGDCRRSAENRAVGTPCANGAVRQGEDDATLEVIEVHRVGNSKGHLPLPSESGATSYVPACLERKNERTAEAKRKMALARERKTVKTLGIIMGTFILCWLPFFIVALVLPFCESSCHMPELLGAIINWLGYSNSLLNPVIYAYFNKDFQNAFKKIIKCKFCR

Assay [1] concerns the target mGlu4 receptor of the mouse brain (mouse (endogenous in C57BL/6J brain)) (UniProt Q68EF4). Briefly: proximity ligation; Duolink II in situ PLA on fixed 5 µm mouse brain sections (MEnt, CA1); rabbit anti-mGlu4 and goat anti-5-HT1A primary antibodies.
Assay [2] addresses human metabotropic glutamate receptor 4 (GRM4, variant 1) with the SNAP-tag inserted after the 28th amino acid (human) (UniProt Q14833). Briefly: FRET or BRET; homogeneous time-resolved FRET on intact T-REx 293 cells expressing both receptors (+Tet); mGlu4 labelled with Snap-Tb (donor), 5-HT1A with 200 nM Halo-Alexa 488 (acceptor); read in Hanks-HEPES buffer; with or without 100 μM L-Glu or (R)-(+)-8-OH DPAT. In general terms: BRET reads energy transfer from a luciferase to a nearby fluorophore.

Assay [3] addresses human 5-HT1A receptor tagged with SNAP protein (human) (UniProt P08908). As to the kind of experiment: FRET or BRET; homogeneous time-resolved FRET on intact T-REx 293 cells expressing one SNAP-tagged receptor; labelled with 100 nM Snap-Tb (donor) and 150 nM Snap-Green (acceptor), 2 h at 37 °C; read in Hanks-HEPES buffer, 20,000 cells per well; controls: buffer, nonlabeled, single-labeled cells, 1:1 mix of separately labeled cells.

No constants are given. Whether binding was seen depends on the method and setting. Binding seen in cells or lysates may run through a third protein. Some results given as binding are weak or reduced against the parent protein; the word gives no strength.

“5-HT1A receptor of the mouse brain (from UniProt Q64264 1-421)”: the binding entry in assay [1] was “binds”.
Regarding “5-HT1A receptor tagged with HALO-tag (from UniProt P08908 1-422)”, the binding entry in assay [2] is recorded as “binds”.
In the case of “human 5-HT1A receptor tagged with SNAP protein (from UniProt P08908 1-422)”, in assay [3], the binding entry is listed as “binds”.
